Results are given in words; binding and its absence hold for the method and conditions named. Some binding calls cover weakened binding; strength is not graded here.
Tests used:
[1] = biological target: U1-70k isoform 2 (human (endogenous in HeLa)) (UniProt P08621); test: native MS; ratio of the U1-70k isoforms in stripped complexes after gas-phase loss of Sm-B/B' or U1-C from the HeLa U1 snRNP at lower activation energy (collision cell 100 V), 200 mM ammonium acetate; at high activation (160 V) the ratio stays as in the intact complex
[2] = biological target: U1-70k isoform 2 (human (endogenous in HeLa)) (UniProt P08621); test: native MS; sub-complexes of the U1 snRNP purified from HeLa cells, formed by gas-phase activation or in solution (15% n-butanol and/or 128-150 mM ammonium acetate); U1 snRNA is present in all dissociation products

By UniProt entry, the sequences of proteins in these tests, tags left out. Where a name states a change or a piece, a line headed by the entry shows the natural chain unless it says otherwise. Chains listed by the source or under a name are the forms on record and can include a tag or linker.
U1-70k isoform 2 (human (endogenous in HeLa)) (P08621, form named): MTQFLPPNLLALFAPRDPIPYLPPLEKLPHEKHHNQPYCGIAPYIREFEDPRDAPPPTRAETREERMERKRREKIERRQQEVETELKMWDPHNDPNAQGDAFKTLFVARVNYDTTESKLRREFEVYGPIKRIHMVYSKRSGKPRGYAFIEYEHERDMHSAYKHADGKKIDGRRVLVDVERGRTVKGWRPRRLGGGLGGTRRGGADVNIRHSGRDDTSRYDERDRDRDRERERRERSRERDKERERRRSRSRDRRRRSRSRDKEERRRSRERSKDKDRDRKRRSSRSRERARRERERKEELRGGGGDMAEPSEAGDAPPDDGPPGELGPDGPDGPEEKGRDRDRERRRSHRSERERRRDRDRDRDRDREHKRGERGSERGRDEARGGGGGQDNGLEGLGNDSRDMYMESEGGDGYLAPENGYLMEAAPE
UniProt P09234: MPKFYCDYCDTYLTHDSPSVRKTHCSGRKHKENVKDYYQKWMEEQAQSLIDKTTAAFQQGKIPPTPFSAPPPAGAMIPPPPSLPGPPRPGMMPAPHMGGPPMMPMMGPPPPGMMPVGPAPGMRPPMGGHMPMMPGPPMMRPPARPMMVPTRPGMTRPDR
UniProt P62316: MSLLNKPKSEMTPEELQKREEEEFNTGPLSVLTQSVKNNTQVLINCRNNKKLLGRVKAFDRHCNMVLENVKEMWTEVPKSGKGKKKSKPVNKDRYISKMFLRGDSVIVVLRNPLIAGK

| Substance | binding [1] | binding [2] |
| --- | --- | --- |
| U1-C protein of the native human U1 snRNP (from UniProt P09234 1-159) | binds | – |
| Sm-D2 (from UniProt P62316 1-118) | – | binds |

Source: article PMC2747018
